Screening data, single-dose tests

Protein sequences, listed by entry. Tags and fused reporters are not part of them. Residues count along the entry.
UniProt A4I591, 1-473: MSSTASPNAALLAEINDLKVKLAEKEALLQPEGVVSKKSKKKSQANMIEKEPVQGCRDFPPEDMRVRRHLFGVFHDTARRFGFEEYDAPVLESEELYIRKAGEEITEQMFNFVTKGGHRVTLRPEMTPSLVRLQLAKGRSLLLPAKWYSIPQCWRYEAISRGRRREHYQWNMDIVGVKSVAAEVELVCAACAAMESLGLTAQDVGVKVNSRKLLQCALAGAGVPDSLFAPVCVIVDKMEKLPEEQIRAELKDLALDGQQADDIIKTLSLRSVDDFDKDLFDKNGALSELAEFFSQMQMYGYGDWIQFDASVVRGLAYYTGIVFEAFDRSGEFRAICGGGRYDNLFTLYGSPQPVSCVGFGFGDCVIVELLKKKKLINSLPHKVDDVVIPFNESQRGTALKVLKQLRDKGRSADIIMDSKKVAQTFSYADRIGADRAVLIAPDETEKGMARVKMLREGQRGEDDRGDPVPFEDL
UniProt P9WFT3, whole entry: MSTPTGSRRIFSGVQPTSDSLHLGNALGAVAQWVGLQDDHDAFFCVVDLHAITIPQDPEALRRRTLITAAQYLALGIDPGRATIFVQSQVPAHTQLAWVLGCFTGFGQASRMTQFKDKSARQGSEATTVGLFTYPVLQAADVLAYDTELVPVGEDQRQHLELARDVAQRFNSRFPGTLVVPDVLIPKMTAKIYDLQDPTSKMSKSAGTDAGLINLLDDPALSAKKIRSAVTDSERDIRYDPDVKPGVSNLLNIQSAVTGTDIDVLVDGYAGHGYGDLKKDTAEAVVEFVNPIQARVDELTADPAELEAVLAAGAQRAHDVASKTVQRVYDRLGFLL

From ChEMBL document CHEMBL3988442, “University of Dundee, Small-Polar-MMV Screening Library” (2021).

LiHisRS: 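Enzyme assay of histidyl-tRNA synthetase; the read-out is not stated. Target: Histidine-tRNA ligase, Leishmania infantum (UniProt A4I591). Concentration: 30 µM. Direction is inferred from retests: higher values go with stronger inhibition. The assay is labelled LdHisRS but filed under L. infantum. About 69,000 compounds were tested under these conditions; 0.6% (about 410) showed 50% or more at least once.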
T. brucei: 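Whole-parasite assay of Trypanosoma brucei over 72 hours; the read-out is not stated. Concentration: 30 µM. Higher reads as stronger inhibition (inferred: compounds with an IC50 in retests scored well above the rest). Values scatter widely below zero; nearly all retest evidence comes from the higher of the two concentrations used. Size under these conditions: about 64,000 compounds, about 940 of them at 50% or above in at least one test.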
MtTrpRS: 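Tryptophan-tRNA ligase, Mycobacterium tuberculosis (UniProt P9WFT3). Enzyme assay of tryptophanyl-tRNA synthetase; the read-out is not stated. Compounds at 10 µM. Direction is not recorded; retested compounds ran higher, which suggests that high means inhibition. About 65,000 compounds were tested under these conditions; 0.098% (about 64) showed 50% or more at least once.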

Values are the deposited “Percent Effect”, in %.
The controls that fix the scale are not given in the record; negative values are as filed.
Compounds were drawn at random from those tested, without regard to their results.
A dash means the value is not listed here; it may have been measured.

With Cc1nnc(N2CC[C@H](OCC3CC3)[C@@H](Cc3ccccc3)C2)s1.O=C(O)C(F)(F)F the screen gave T. brucei: -16.49%. With CCN1C(=O)CCCC12CCCN(C(=O)c1sccc1C)C2 (stereo not drawn) the screen gave LiHisRS: 15.38%; T. brucei: 8.668%; MtTrpRS: -7.558%. CN(C)c1ccc(C(=O)Nc2ccn(Cc3ccccn3)n2)cn1 read LiHisRS: 14.16%; T. brucei: -117.3%; MtTrpRS: 0.1361%. Result for c1ccc(OCCNc2ncnc3sc4c(c23)CCNC4)cc1 was LiHisRS: 23.33%; T. brucei: -88.24%; MtTrpRS: 2.547%. CC(C)CC(CO)NS(=O)(=O)Cc1ccon1 (stereo not drawn) gave LiHisRS: 9.524%; T. brucei: -8.495%; MtTrpRS: 2.16%.

For Nc1ncnc2c1ncn2[C@H]1CCN(Cc2ccsc2)CC[C@@H]1O the result was LiHisRS: 13.04%; T. brucei: -4.983%. Cc1cccc(CN2CCc3ncnc(NC4CCC4)c3CC2)n1 gave LiHisRS: 24.47%; MtTrpRS: 7.833%. For CC(C)c1cc(C(=O)NC2CCN(CC(N)=O)CC2)nn1C(C)(C)C the result was LiHisRS: 15.22%; T. brucei: -30.86%; MtTrpRS: -3.099%. CCc1ncc(C(=O)N2CCN(C(=O)COc3ccccc3)CC2)cn1 read LiHisRS: 15.62%; T. brucei: -19.88%; MtTrpRS: -2.062%. O=C(CCc1ccc(Br)cc1F)NS(=O)(=O)c1ccc2c(c1)OCCO2 read LiHisRS: 24.32%; T. brucei: 16.17%; MtTrpRS: -2.437%.

For CC(=O)N(Cc1noc(C)n1)C1CCN(Cc2cccc(C#N)c2)C1 (stereo not drawn) the result was LiHisRS: 63.25%; MtTrpRS: 3.464%. For O=C(O)C(F)(F)F.O=C(O)C(F)(F)F.c1cc(CN2CCCC3(COCCN(Cc4c[nH]nn4)C3)C2)cs1 (stereo not drawn) the result was T. brucei: -15.07%. With Cc1nc(NCCO)cc(C(C)Cn2nc(C)c(C)c2C)n1 (stereo not drawn) the screen gave LiHisRS: 14.49%; T. brucei: -7.052%; MtTrpRS: -1.797%. With Cc1nc(NC(=O)C2(C)CN(C)CCO2)sc1C.Cl (stereo not drawn) the screen gave T. brucei: 4.947%. Result for CCCc1nnc(NC(=O)NC2CCOc3ccccc32)s1 (stereo not drawn) was LiHisRS: 16.13%; T. brucei: -40.42%; MtTrpRS: -2.155%.

With [H][C@@]12CCCCN(C(=O)c3cnccn3)[C@]1([H])[C@@H](c1ccccc1)CCN2C the screen gave T. brucei: 19.32%. CN(C)c1nc(N2CCCC2)nc2c1CCN(C(=O)c1ccoc1)CC2 gave LiHisRS: 22%; T. brucei: -26.95%; MtTrpRS: 10.8%. CCS(=O)(=O)NCCN1CCN(C(C#N)c2ccccc2)CC1 (stereo not drawn) gave LiHisRS: 15.22%; T. brucei: -15.59%; MtTrpRS: 2.251%. With O=C(NC(c1ccccc1)c1cccnc1)C1CC1 (stereo not drawn) the screen gave LiHisRS: 11.96%; T. brucei: -20.41%; MtTrpRS: -2.488%. For O=C1CCCc2nccc(-c3ccccc3)c21 the result was LiHisRS: 14.29%; T. brucei: 1.683%; MtTrpRS: -2.083%.

Result for O=S(=O)(NCCN1CC=CC1)c1ccc(Cl)cc1 was LiHisRS: 15.83%; T. brucei: -24.24%; MtTrpRS: -4.128%. CC(C)c1nc(CN2CCc3onc(-c4cccc(F)c4)c3C2)no1 read LiHisRS: 31.15%; T. brucei: 51.01%; MtTrpRS: 3.382%. For O=C(O)C(F)(F)F.[H][C@]12C[C@@H](Cn3cncn3)N(C(C)=O)[C@@]1([H])CCN(CC1CC1)C2 the result was T. brucei: 10.22%. Result for COCC(=O)N1CCC(c2cc3n(n2)[C@@H](C(F)(F)F)C[C@@H](C)N3)CC1 was LiHisRS: 4%; T. brucei: 8.827%. Result for Cc1nc2c(C)cccc2cc1C(=O)N1CCC2(CCN(C)CC2)C1 was LiHisRS: 25.3%; T. brucei: -18.6%; MtTrpRS: 3.263%.

With Cc1cccc2c1OCCCC2NCc1nnc2n1CCCCC2 (stereo not drawn) the screen gave LiHisRS: 0%; T. brucei: -22.32%; MtTrpRS: -1.754%. O=c1ccn(Cc2nc(-c3ccccc3F)cs2)c(=O)[nH]1 read LiHisRS: 21.01%; T. brucei: -23.14%; MtTrpRS: -2.75%. Cc1nc(CN2CCCC(NCCOc3ccccc3)C2)no1 (stereo not drawn) read LiHisRS: -25.84%; T. brucei: -43.12%; MtTrpRS: -1.652%. O=C(CCCn1cccn1)N1C[C@@H](O)[C@H](Oc2cccc(F)c2)C1 read LiHisRS: -161.1%; T. brucei: -22.89%; MtTrpRS: -3.536%. For CN1CCOC(C(=O)Nc2ccc3c(c2)nc(C(C)(C)C)n3C)C1 (stereo not drawn) the result was LiHisRS: 5.263%; T. brucei: 8.718%; MtTrpRS: -3.43%.

For reference, 2 entries once more:

SMILES	LiHisRS	T. brucei	MtTrpRS
CC(C)c1cc(C(=O)NC2CCN(CC(N)=O)CC2)nn1C(C)(C)C	15.22%	-30.86%	-3.099%
Cc1nc(NC(=O)C2(C)CN(C)CCO2)sc1C.Cl (stereo not drawn)	-	4.947%	-